# Data source: PubChem BioAssay AID1259254 (NCATS, 2017)
# Aim: 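Genome-wide screen for genes that prevent DNA re-replication in cancer cells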 (primary screen)
# Cell system: human HCT116 colorectal cancer cells
# Reagents: single siRNA against human genes
# Duration: 3 days
# Detection: 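Nuclei stained with Hoechst and imaged; cell-cycle phase assigned by DNA content; G2 share scaled per plate, non-targeting siRNA 0%, GMNN siRNA 100%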
# Direction: G2 robust z-score and G2 cells, % of GMNN control: higher = more G2 cells, more excess DNA replication
# Active means: 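Active siRNAs have a G2 robust z of 5 or more median absolute deviations over the median, which in these data means about 38% or higher of GMNN control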
# In all, the deposit lists about 59,000 reagents; this is a random part of them. About 1,550 of all reagents (2.6%) were called active. 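G2 share is only a proxy for re-replication; each gene was hit by three separate siRNAs, and active genes were retested.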 The numbers tell different reagents against one gene apart. Not all columns of the deposit are shown. Not given: the amount of reagent.
The first 2 records, to show the layout:
target gene,reagent no.,G2 robust z-score,"G2 cells, % of GMNN control",outcome
TMEM74B (transmembrane protein 74B),1,2.56,21,inactive
TMEM74B (transmembrane protein 74B),2,-0.216,1.45,inactive

Results, from the first entry:
target gene,reagent no.,G2 robust z-score,"G2 cells, % of GMNN control",outcome
TMEM74B (transmembrane protein 74B),1,2.56,21,inactive
TMEM74B (transmembrane protein 74B),2,-0.216,1.45,inactive
TMEM74B (transmembrane protein 74B),3,1.18,11.3,inactive
GPR150 (G protein-coupled receptor 150),1,2.72,22.1,inactive
GPR150 (G protein-coupled receptor 150),2,0.457,6.18,inactive
GPR150 (G protein-coupled receptor 150),3,-0.189,1.64,inactive
CYBRD1 (cytochrome b reductase 1),1,-0.0633,2.52,inactive
CYBRD1 (cytochrome b reductase 1),2,-0.782,-2.53,inactive
CYBRD1 (cytochrome b reductase 1),3,0.0326,3.2,inactive
C1orf74 (chromosome 1 open reading frame 74),1,0.0489,3.31,inactive
C1orf74 (chromosome 1 open reading frame 74),2,1.38,12.7,inactive
C1orf74 (chromosome 1 open reading frame 74),3,-0.933,-3.6,inactive
CSRNP1 (cysteine and serine rich nuclear protein 1),1,-1.03,-4.31,inactive
CSRNP1 (cysteine and serine rich nuclear protein 1),2,-0.206,1.52,inactive
CSRNP1 (cysteine and serine rich nuclear protein 1),3,1.54,13.8,inactive
MTHFS (methenyltetrahydrofolate synthetase),1,0.294,5.04,inactive
MTHFS (methenyltetrahydrofolate synthetase),2,0.496,6.46,inactive
MTHFS (methenyltetrahydrofolate synthetase),3,-1.44,-7.17,inactive
SGO2 (shugoshin 2),1,-0.328,0.661,inactive
SGO2 (shugoshin 2),2,0.253,4.75,inactive
SGO2 (shugoshin 2),3,-0.485,-0.447,inactive
BRI3BP (BRI3 binding protein),1,2.04,17.4,inactive
BRI3BP (BRI3 binding protein),2,0.767,8.36,inactive
BRI3BP (BRI3 binding protein),3,-0.328,0.66,inactive
NBEA (neurobeachin),1,-0.319,0.726,inactive
NBEA (neurobeachin),2,8.63,63.7,active
NBEA (neurobeachin),3,-0.53,-0.76,inactive
COL3A1 (collagen type III alpha 1 chain),1,-0.513,-0.639,inactive
COL3A1 (collagen type III alpha 1 chain),2,-0.478,-0.396,inactive
COL3A1 (collagen type III alpha 1 chain),3,-0.928,-3.56,inactive
DENND1B (DENN domain containing 1B),1,-0.518,-0.678,inactive
DENND1B (DENN domain containing 1B),2,-0.924,-3.53,inactive
DENND1B (DENN domain containing 1B),3,-0.963,-3.81,inactive
DENND1B (DENN domain containing 1B),4,0.497,6.46,inactive
DENND1B (DENN domain containing 1B),5,-0.247,1.23,inactive
DENND1B (DENN domain containing 1B),6,-0.459,-0.262,inactive
SLC22A16,1,0.975,9.82,inactive
SLC22A16,2,-0.533,-0.784,inactive
SLC22A16,3,0.145,3.99,inactive
CLEC4C (C-type lectin domain family 4 member C),1,0.764,8.34,inactive
CLEC4C (C-type lectin domain family 4 member C),2,3.38,26.7,inactive
CLEC4C (C-type lectin domain family 4 member C),3,0.928,9.5,inactive
PHB2 (prohibitin 2),1,-0.463,-0.289,inactive
PHB2 (prohibitin 2),2,-0.989,-3.99,inactive
PHB2 (prohibitin 2),3,1.95,16.7,inactive
ZNF526 (zinc finger protein 526),1,0.0734,3.48,inactive
ZNF526 (zinc finger protein 526),2,0.0949,3.63,inactive
ZNF526 (zinc finger protein 526),3,-0.0559,2.57,inactive
SMIM15 (small integral membrane protein 15),1,-0.418,0.0292,inactive
SMIM15 (small integral membrane protein 15),2,-0.166,1.8,inactive
SMIM15 (small integral membrane protein 15),3,-0.504,-0.582,inactive
OTOG (otogelin),1,1.89,16.3,inactive
OTOG (otogelin),2,-0.186,1.66,inactive
OTOG (otogelin),3,0.478,6.33,inactive
ZFYVE1 (zinc finger FYVE-type containing 1),1,-0.431,-0.0675,inactive
ZFYVE1 (zinc finger FYVE-type containing 1),2,1.92,16.5,inactive
ZFYVE1 (zinc finger FYVE-type containing 1),3,1.57,14,inactive
TBC1D10B (TBC1 domain family member 10B),1,-0.879,-3.22,inactive
TBC1D10B (TBC1 domain family member 10B),2,-0.712,-2.04,inactive
TBC1D10B (TBC1 domain family member 10B),3,-0.401,0.144,inactive
DEFB131A (defensin beta 131A),1,-0.528,-0.746,inactive
DEFB131A (defensin beta 131A),2,-0.157,1.86,inactive
DEFB131A (defensin beta 131A),3,0.0428,3.27,inactive
RASSF4 (Ras association domain family member 4),1,1.27,11.9,inactive
RASSF4 (Ras association domain family member 4),2,-0.639,-1.53,inactive
RASSF4 (Ras association domain family member 4),3,-0.577,-1.09,inactive
PPFIA1 (PPFI scaffold protein A1),1,0.631,7.41,inactive
PPFIA1 (PPFI scaffold protein A1),2,-0.0418,2.67,inactive
PPFIA1 (PPFI scaffold protein A1),3,-1.01,-4.13,inactive
